Results: PubChem BioAssay AID1347075 (National Center for Advancing Translational Sciences (NCATS), 2019)
Several values for one entry are separate records, joined by “and”; a condition that tells them apart may be missing. Equal entries are not always repeated. Screen size: about 400,000 compounds; about 5,500 (1.4%) were called active. Inconclusive means that the source gave no clear call. Such entries were picked first, then a sample of the others. Calls follow the shape of the dose curve; as a rule, active = well fitted cell-killing curve with a large enough effect; inconclusive = small, poorly fitted or top-dose-only effect, or effect the other way; inactive = flat fitted curve, though single readings scatter. A potency beside an inconclusive call is a rough fit, not a confirmed value.
% is scaled to controls: 0 for no effect and ±100 for the full control effect; potency is read from the fitted curve at half-maximal effect.

Experiment: qHTS assay for MDR1-selective chemotherapeutics: Primary screen using the parental adenocarcinoma cell KB-3-1; also: nearly all actives have a fitted effect of over 60% in size
Conditions: KB-3-1 viability, CellTiter-Glo ATP luminescence, 72 h; activity change, negative = cytotoxic: at 46.1 µM (top of the series)
Method in brief: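 Parental KB-3-1 adenocarcinoma cells in phenol-red-free DMEM with 10% FBS were pin-treated with compounds at several concentrations, incubated 72 h at 37 °C, and viability read by CellTiter-Glo luminescence; concentration-effect curves were fitted after normalization.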
In the case of `Cc1noc(-c2ccc(C(F)(F)F)cc2)c1NC(=O)Nc1ccc(Cl)cc1`, the Potency is reported as inconclusive: 18.4 µM [cytotoxic, single point]. In the case of `CCCC(=O)Nc1nc2ccc(NC(=O)c3cccnc3)cc2s1`, the Potency is reported as inconclusive: 29.1 µM [cytotoxic, single point]. For `COc1ccc(-c2cc3c(nn2)-c2ccccc2C3=O)cc1`, the Potency was inconclusive: 14.6 µM [cytotoxic, partial curve]. In the case of `COc1ccc(CNC(=O)Cn2cnc3c(NCc4ccccc4)ncnc32)cc1`, the Potency is reported as active: 10.3 µM. With `Cc1cc(=O)oc2cc(O)cc(O)c12` the activity change, negative = cytotoxic was inconclusive: -85.5%. For `CCOc1ccc(CCNC(=O)C2CCCN(S(=O)(=O)c3c(C)n[nH]c3C)C2)cc1OCC` (stereo not given), the Potency was “inactive”. With `SCc1nc2ccc(Cl)cc2[nH]1` the Potency was inconclusive: 4.61 µM [rising, full curve, poor fit]. For `COc1ccc(/C=N\NC(=O)c2sccc2C)cc1Cn1nc(C)cc1C`, the Potency was inconclusive: 13 µM [cytotoxic, partial curve, poor fit]. With `COc1ccccc1N(CC(O)Cn1ccnc1C)S(=O)(=O)c1ccc(C)cc1` (stereo not given) the Potency was inconclusive: 25.9 µM [rising, single point]. In the case of `COc1ccc(-c2nc(SCC(=O)Nc3nccs3)c(-c3ccc(Cl)cc3)[nH]2)cc1`, the Potency is reported as inconclusive: 20.6 µM [cytotoxic, single point]. In the case of `CC1(C#N)c2ccccc2C(Br)=CN1C(=O)c1ccccc1` (stereo not given), the Potency is reported as inconclusive: 29.1 µM [cytotoxic, single point]. In the case of `CCOC(=O)c1ccccc1NC(=O)N(Cc1ccco1)C1CCN(C(C)=O)CC1`, the Potency is reported as inconclusive: 20.6 µM [cytotoxic, single point]. In the case of `Cc1ccc(C)c(NC(=S)c2ccc3ccccc3n2)c1`, the Potency is reported as inconclusive: 18.4 µM [cytotoxic, single point]. For `COC(=O)C[C@H]1C=C[C@H](NC(=O)C2CCOCC2)[C@@H](CO)O1`, the Potency was “inactive”. In the case of `COc1ccc(CN2CCSCC2)cc1O`, the Potency is reported as inconclusive: 29.1 µM [rising, partial curve, poor fit]. In the case of `COc1ccccc1-c1cc(C(F)(F)F)nc(S(=O)(=O)CCCC(=O)Nc2ccc(F)c(Cl)c2)n1`, the Potency is reported as “inactive”. In the case of `COc1cccc2[nH]c3c(N4CCC(C)CC4)ncnc3c12`, the Potency is reported as inconclusive: 23.1 µM [cytotoxic, partial curve, poor fit]. In the case of `O=C(CCNC(=O)c1ccccc1Cl)Nc1nc(-c2ccc3ccccc3c2)cs1`, the Potency is reported as inconclusive: 16.4 µM [cytotoxic, partial curve, poor fit]. In the case of `CC(Oc1ccc(Cl)cc1Cl)c1nc(-c2ccc(NC(=O)c3ccncc3)cc2)no1` (stereo not given), the Potency is reported as inconclusive: 3.66 µM [cytotoxic, full curve, poor fit]. In the case of `O=C(O)c1ccccc1NC(=O)c1ccccc1Nc1ccccc1`, the Potency is reported as inconclusive: 29.1 µM [cytotoxic, single point]. With `CC(NC(=O)COC(=O)CCN1C(=O)C2CC=CCC2C1=O)c1ccc(Br)cc1` (stereo not given) the Potency was “inactive”. With `Cc1cccc(NC(=O)c2ccc(NCC3CCCO3)c([N+](=O)[O-])c2)n1` (stereo not given) the Potency was “inactive”. With `CCOC(=O)C1=C(COC(=O)CNS(=O)(=O)c2c(F)cc(F)cc2Br)NC(=O)NC1C` (stereo not given) the Potency was “inactive”. For `Cc1ccc(N2C(=N)SCC2=O)cc1Cl`, the activity change, negative = cytotoxic was inconclusive: -17.7%. For `O=C(c1ccc2nc(Cc3cccc(Cl)c3)oc2c1)N1CCC[C@H]1CO`, the activity change, negative = cytotoxic was inconclusive: 30.8%. For `CC(=O)c1ccc(N2CCN(C(=O)/C=C/c3cccs3)CC2)cc1`, the Potency was inconclusive: 25.9 µM [rising, partial curve, poor fit]. In the case of `COc1ccccc1CN(Cc1nc2ccccc2c(=O)[nH]1)C(=O)Nc1cccc(C)c1`, the Potency is reported as “inactive”. With `CCC(=O)Nc1ccc2ccccc2c1` the Potency was inconclusive: 4.11 µM [rising, partial curve, poor fit]. With `O=C(CCl)Nc1ccc(Oc2cnc3ccccc3n2)cc1` the Potency was active: 6.51 µM. For `CCOC(=O)c1nn(-c2ccc(F)cc2)cc1O`, the Potency was “inactive”. For `COc1cccc(NC(=O)C2(C)CCCN2C(=O)C(C)C)c1` (stereo not given), the Potency was inconclusive: 23.1 µM [rising, partial curve, poor fit]. For `O=C(c1cccnc1)N(Cc1ccccc1)c1ccccc1`, the Potency was “inactive”. In the case of `COc1cnc(-c2ccccn2)nc1Sc1c(Cl)cccc1Cl`, the Potency is reported as inconclusive: 16.4 µM [cytotoxic, partial curve, poor fit]. In the case of `CCC(Oc1ccccc1)C(=O)Nc1ccc(C)c(S(=O)(=O)N2CCOCC2)c1` (stereo not given), the Potency is reported as “inactive”. For `COC(=O)C(NC(C)=O)(Nc1nc2c(C)cc(C)cc2s1)C(F)(F)F` (stereo not given), the Potency was inconclusive: 25.1 µM [cytotoxic, single point]. With `COCCN1C(=O)c2cc(C(=O)Nc3ccc(C)c(F)c3)ccc2C1Nc1ccc(C)c(F)c1` (stereo not given) the Potency was inconclusive: 32.6 µM [cytotoxic, single point]. For `CC(C)(C)c1nn(-c2ccccc2)c2[nH]c(=O)c(CNCc3ccc4c(c3)OCO4)cc12`, the Potency was inconclusive: 29.1 µM [cytotoxic, single point]. With `CCN1CCN(CCNC(=O)c2ccc(/C=C3/Sc4ccccc4N(Cc4cccc(Cl)c4)C3=O)cc2)CC1` the Potency was inconclusive: 18.4 µM [cytotoxic, single point]. With `Cc1ccc(SCC(=O)OCC(=O)N(C)CC(=O)Nc2ccc(F)cc2)cc1C` the Potency was “inactive”. In the case of `CC(Sc1nc(N(C)C)nc(N2CCOCC2)n1)C(=O)Nc1ccccc1` (stereo not given), the Potency is reported as “inactive”. In the case of `N#Cc1nc(-c2ccco2)oc1N1CCN(c2cccc(Cl)c2)CC1`, the Potency is reported as inconclusive: 29.1 µM [rising, single point]. For `COc1ccc(NC(=O)CN2C(=O)COc3ccc(S(=O)(=O)N4CCOCC4)cc32)cc1Cl`, the Potency was “inactive”. In the case of `CCCc1c(C(=O)N/N=C/c2ccoc2)nnn1-c1nonc1N`, the Potency is reported as “inactive”. For `C[C@@H]1CCC(=O)N(CC[C@H](Sc2ccc(Br)cc2)c2ccccc2)CC1`, the Potency was inconclusive: 20.6 µM [cytotoxic, single point] and inconclusive: 29.1 µM [cytotoxic, single point]. For `COc1ccc(C)cc1-n1c(SCC(=O)Nc2cc(C)on2)nc2ccccc2c1=O`, the Potency was inconclusive: 29.1 µM [cytotoxic, single point].
